Experimental data published in PMC12714136, “14-3-3θ phosphorylation at S232 reduces its interactome and regulates axonal trafficking” (Disease Models & Mechanisms, 2025).
Changes are numbered by the printed parent chain. Results are given in words; binding and its absence hold for the method and conditions named. In cells and extracts the contact can be indirect. A result given as binding can be weak or reduced; the word gives no strength.

B1: 14-3-3θ (endogenous, M17 neuroblastoma cells) (protein, UniProt P27348 1-245)
chain: MEKTELIQKAKLAEQAERYDDMATCMKAVTEQGAELSNEERNLLSVAYKNVVGGRRSAWRVISSIEQKTDTSDKKLQLIKDYREKVESELRSICTTVLELLDKYLIANATNPESKVFYLKMKGDYFRYLAEVACGDDRKQTIDNSQGAYQEAFDISKKEMQPTHPIRLGLALNFSVFYYEILNNPELACTLAKTAFDEAIAELDTLNEDSYKDSTLIMQLLRDNLTLWTSDSAGEECDAAEGAEN
B2: 14-3-3θ (wild type, mouse cortex) (protein, UniProt P68254 1-245)
chain: B1 chain with D143E

Legend:
[1] = biological target: β-spectrin (M17 neuroblastoma cells) (human (endogenous in SK-N-BE(2)-M17)); experiment: proximity ligation; fixed SK-N-BE(2)-M17 cells; antibodies against 14-3-3θ and β-spectrin or dynamin 1; single-antibody controls
[2] = biological target: β-spectrin (mouse cortex) (mouse (endogenous in cortex)); experiment: co-IP; wild-type mouse cortex in Pierce IP buffer (25 mM Tris-HCl pH 7.4, 150 mM NaCl, 1 mM EDTA, 1% NP40, 5% glycerol); IP with anti-β-spectrin or anti-dynamin 1 antibody overnight, rabbit IgG control, dynabeads; blot for 14-3-3θ

Binder	binding [1]	binding [2]
B1	binds	
B2		binds
